Screening data, single-dose tests

Each number is a percent effect as filed. The controls that fix the scale are not given in the record; negative values are as filed. Compounds were drawn at random from those tested, without regard to their results.

A: 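Growth of Mycobacterium tuberculosis over 4 days (cholesterol / DPPC medium with tyloxapol); the read-out is not stated. Concentration: 500 µM. Higher reads as more growth inhibition (inferred: compounds with an IC50 in retests scored well above the rest). Size under these conditions: about 18,000 compounds, about 900 of them at 50% or above in at least one test.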
B: 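Phenotypic screen: M. tuberculosis growth, glucose 7H9 medium, 3 days; the read-out is not stated. Tested at 500 µM. The record gives no direction; compounds that gave an IC50 in retests scored well above the rest, so higher reads as more growth inhibition. Size under these conditions: about 18,000 compounds, about 1,400 of them at 50% or above in at least one test.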

structure | A | B
CSCCC(O)C(=O)NCCCc1ncc[nH]1 (centres undefined) | 4.489% | 6.257%
COCCn1ncc2c1C(N)CCC2 (centres undefined) | -14.1% | -11.08%
COc1cc(C(N)=O)cc2c1OCCO2 | -2.849% | 7.111%
CC(C)[C@H](N)C(=O)N1CCc2c(F)cccc2C1 | 10.81% | 14.09%
CCNC(=O)N1CCN(Cc2ccc(OC)nc2)CC1 | -8.388% | 5.386%
CCOc1cc(Cl)ccc1CN | 44.84% | 55.45%
CSc1ccc(CC(=O)N(C)Cc2ccon2)cc1 | 40.28% | 55.94%
C[C@@H]1CNC[C@H]1C(=O)N1CCOCC1 | 5.692% | 8.375%
Cc1c(C(=O)N2C[C@@H](CN(C)C)[C@@H](CO)C2)cnn1C | 3.631% | 2.822%
CCS(=O)(=O)c1cncnc1N | -17.71% | -0.2783%
COc1ccnc(C(N)=O)c1 | 5.38% | 3.035%
CN(C)CCCNC(=O)c1cc2ccccc2[nH]1 | 16.48% | 35.64%
CC(O)CN1C(=O)C=CC1=O (centres undefined) | 114.8% | 107.4%
CCC(C)NC(=O)c1cnn2cccnc12 (centres undefined) | -19.41% | 12.95%
COC(C(=O)N(C)C)c1ccccc1 (centres undefined) | -15.73% | -4.488%
CCN1CCN(c2ccc(NC(=O)C(C)C)cc2)CC1 | -3.455% | -5.102%
Cn1ncc2c(NCc3ccccc3CO)ncnc21 | 2.734% | 2.893%
CCCc1nc(CN(CC)C(=O)[C@@H]2CCC(=O)N2)no1 | -21.36% | 2.855%
O=C(CNC1CC1)N[C@@H]1CCOC[C@H]1OCCO | 8.225% | 4.069%
CNCC1(CO)CCCC1 | -5.459% | -11.64%
CC(NC(=O)c1ccncc1)c1ccncc1 (centres undefined) | 9.967% | 7.432%
Cn1cccc1CNCCNC(=O)c1ccn[nH]1 | -10.1% | -1.812%
Cc1n[nH]c2c1C(c1ccc(O)cc1)CC(=O)N2 (centres undefined) | -1.386% | 18.2%
COC(C)C(=O)N[C@@H](C)c1nc2ccccc2[nH]1 (some centres undefined) | -4.157% | -1.96%
CNS(=O)(=O)c1ccc(CCC(=O)N(C)C)cc1 | 1.672% | 7.262%
CCN1CCN(C(C)CNC(=O)Cn2cnnn2)CC1 (centres undefined) | 73.31% | 74.22%
NCCc1cccc2cc[nH]c12 | 99.27% | 83.96%
O=S1(=O)CCCC1CNC1CCSCC1 (centres undefined) | -0.905% | -1.823%
CCOC(=O)c1ccc(CNc2nncs2)o1 | 15.69% | 18.02%
COc1cccc(C(C)N2CCNCC2)c1 (centres undefined) | -4.136% | 31.86%
N#Cc1c(F)cccc1NCCSCCCO | 69.41% | 69.32%
NC1CCC(OCC(=O)Nc2nccs2)CC1 (centres undefined) | -8.731% | -6.532%
NCCc1ccc(Cl)s1 | 27.22% | 29.02%
COc1cc(CN)cc(Br)c1O | 10.74% | 5.312%
COC(=O)CCCNc1ccc2c(c1)OCCO2 | 76.85% | 57.46%
CCC(CC)(CN)C(=O)N1CCN(C(=O)N(C)C)CC1 | -0.6238% | -2.938%
Cc1nc(C)c(C(=O)NC(CCO)c2cccs2)o1 (centres undefined) | -16.61% | -2.227%
c1ccc(-c2noc(CN3CCNCC3)n2)cc1 | 26.93% | 24.43%
CCS(=O)(=O)NCCCNS(=O)(=O)c1ccc(C)cc1 | -12.78% | 29.17%
CC(CNC(=O)c1cn2ccccc2n1)N1CCCC1 (centres undefined) | -4.92% | 8.527%
CCCS(=O)(=O)N1CC(N(C)Cc2cccnc2)C1 | 5.208% | 16.94%
CC(C#N)N1CCOCC1 (centres undefined) | -12.12% | -1.537%
NCC(N)c1ccc2ncccc2c1 (centres undefined) | 11.67% | 29.56%
COCCN1CCCC(C(=O)NCC(F)(F)F)C1 (centres undefined) | -10.9% | -12.27%
COCC(NC(=O)CC1=CCCCC1)C(N)=O (centres undefined) | -0.4088% | 7.832%
Cc1c[nH]c(CN(C)C(=O)CC2CN(C)CCN2C)n1 (centres undefined) | 4.297% | -3.066%
COC(=O)c1ccc(CN2CCCC(CO)C2)cc1 (centres undefined) | 21.7% | 16.59%
OCCc1nccs1 | -1.264% | 6.226%
CN1C(=O)CCc2cc(C(=O)N3CCCC3)ccc21 | 15.64% | 43.94%
O=c1ccc(F)cn1Cc1cnn(-c2ccccc2)n1 | -13.59% | -10.91%
Cc1ccc(CN(C)C(=O)c2cnn(C)c2)o1 | 15.66% | 25.63%
O=C(CC1C=CCC1)NCc1ccccn1 (centres undefined) | 29.99% | 37.01%
CN(C(=O)NCC1CCCO1)C1(CCO)CCOCC1 (centres undefined) | -4.85% | 0.6638%
C1CC(OC2CCOC2)CCN1 (centres undefined) | -16.99% | -13.83%
C[C@@H]1CN(CCCS(=O)(=O)N(C)C)C[C@@]1(O)C1CCC1 | 20.45% | 49.88%
CCN1CCc2nc(NC(=O)c3cc(Br)c[nH]3)sc2C1 | 7.587% | 16.78%
CCn1cc(C(=O)Nc2ccccc2C(N)=O)c(C)n1 | 38.41% | 43.09%
NCC(O)c1ccncc1 (centres undefined) | 5.59% | 7.48%
CN(C)c1ccnc(NC(=O)c2cc[nH]n2)c1 | -0.08492% | 3.004%
CC(C)C(C)NC(=O)CNC(=O)C1CC1 (centres undefined) | 4.523% | 3.57%
CCc1n[nH]c(CC)n1 | -2.93% | 0.4871%
NC1CCCc2c1cnn2CCO (centres undefined) | -26.75% | -9.64%
Cc1cc(C)c(CO)c(C)c1CO | 3.305% | -2.339%
c1cnn(CCNCCn2cccn2)c1 | -1.486% | -0.6894%
COc1ncccc1CNC(=O)N1CCCN(C)CC1 | 1.398% | -2.876%
Cc1ccccc1NC(=O)Cn1cccn1 | -8.79% | -10.15%
Cc1cc(NC(=O)CS(=O)(=O)c2ccccc2)no1 | 7.542% | 13.86%
NC(c1ccccc1)C1CCOCC1 (centres undefined) | 7.139% | 8.41%
NC(=O)CN(C1CCCC1)S(=O)(=O)c1cccnc1 | 0.212% | -1.462%
Cc1nccn1CCCN1CCCC1C(=O)N(C)C (centres undefined) | -2.139% | 24.6%
OCCC1(NCc2cccc(O)c2)CCOCC1 | -0.3175% | 0.8552%
CCCNC(=O)Nc1ccc2c(c1)OCCO2 | 37.74% | 33.09%
CCOc1ccccc1C(=O)N1CCC(O)CC1 | 3.837% | 15.17%
CN(C(=O)OC(C)(C)C)C1CCNC1 (centres undefined) | 7.412% | 12.36%
CCOC(=O)CN(c1cccc(F)c1)S(C)(=O)=O | 19.8% | 27.67%
OCCNC1COC1 | -3.682% | 6.151%
CNC(=O)CCC(=O)N1CCC(c2ccccc2)=N1 | -9.05% | -6.058%
O[C@@H]1CCN(Cc2ccc3cccc(Cl)c3n2)C1 | 3.95% | 26.99%
O=C(CCc1nc2ccccc2s1)NC1=NCCS1 | 18.43% | 22.04%
O=C(NC1=NCCS1)c1sccc1C1CC1 | 70.22% | 64.17%

7 of the entries, repeated:

{"structure": "CNC(=O)CCC(=O)N1CCC(c2ccccc2)=N1", "A": -9.05, "B": -6.058}
{"structure": "O=C(CNC1CC1)N[C@@H]1CCOC[C@H]1OCCO", "A": 8.225, "B": 4.069}
{"structure": "Cc1n[nH]c2c1C(c1ccc(O)cc1)CC(=O)N2", "stereo": "centres undefined", "A": -1.386, "B": 18.2}
{"structure": "COCC(NC(=O)CC1=CCCCC1)C(N)=O", "stereo": "centres undefined", "A": -0.4088, "B": 7.832}
{"structure": "Cc1cc(C)c(CO)c(C)c1CO", "A": 3.305, "B": -2.339}
{"structure": "CNS(=O)(=O)c1ccc(CCC(=O)N(C)C)cc1", "A": 1.672, "B": 7.262}
{"structure": "O=C(CC1C=CCC1)NCc1ccccn1", "stereo": "centres undefined", "A": 29.99, "B": 37.01}

From ChEMBL document CHEMBL3988442, “University of Dundee, Small-Polar-MMV Screening Library” (2021).